# According to PubChem BioAssay AID651954 (NMMLSC, 2012):
# Screen size: about 1,500 compounds; about 160 (11%) were called active. No stated cut-off is given here; in the data, active means inhibition above about 60%; inactive means the rest. The entries are a selection whose mix differs from that of the whole data set.
# Assay: blockers of LAMP-1 surface exposure, TALL-104 – TALL-104 cells, flow cytometry, Cherry Pick01, confirmation (AID 651954);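 further: 0% = stimulated vehicle wells and 100% = unstimulated wells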
# Conditions: LAMP-1 externalization, at 10 µM, stronger effect = higher value
row,Structure (SMILES),inhibition
1,COc1ccc(Br)cc1CNCCc1cccc(Cl)c1,inactive: -1.41%
2,CCOC(=O)[C@]12Cc3ccccc3[C@H]1N(C1CCCCC1)C(=O)c1cc(OC)ccc12,inactive: 5.33%
